The target of assay [1] is nuclear exportin protein chromosomal maintenance 1 (CRM1/XPO1), endogenous (human (endogenous in MCF-7)) (UniProt O14980). Briefly: co-IP; nuclear protein extracts of control MCF-7 and MCF7-ISG12 (stably overexpressing ISG12) cells grown in hormone-free or E2 medium; IP with anti-CRM1 or anti-ERα, Western blot with anti-ERα or anti-CRM1, densitometry. (In general: In western blotting, separated proteins are transferred to a membrane and probed.)

Chains of the proteins cited; added tags and fusions are not shown. Lines headed by an entry give the natural chain unless they say otherwise; changes in a name come on top. Residues count along the entry.
UniProt O14980: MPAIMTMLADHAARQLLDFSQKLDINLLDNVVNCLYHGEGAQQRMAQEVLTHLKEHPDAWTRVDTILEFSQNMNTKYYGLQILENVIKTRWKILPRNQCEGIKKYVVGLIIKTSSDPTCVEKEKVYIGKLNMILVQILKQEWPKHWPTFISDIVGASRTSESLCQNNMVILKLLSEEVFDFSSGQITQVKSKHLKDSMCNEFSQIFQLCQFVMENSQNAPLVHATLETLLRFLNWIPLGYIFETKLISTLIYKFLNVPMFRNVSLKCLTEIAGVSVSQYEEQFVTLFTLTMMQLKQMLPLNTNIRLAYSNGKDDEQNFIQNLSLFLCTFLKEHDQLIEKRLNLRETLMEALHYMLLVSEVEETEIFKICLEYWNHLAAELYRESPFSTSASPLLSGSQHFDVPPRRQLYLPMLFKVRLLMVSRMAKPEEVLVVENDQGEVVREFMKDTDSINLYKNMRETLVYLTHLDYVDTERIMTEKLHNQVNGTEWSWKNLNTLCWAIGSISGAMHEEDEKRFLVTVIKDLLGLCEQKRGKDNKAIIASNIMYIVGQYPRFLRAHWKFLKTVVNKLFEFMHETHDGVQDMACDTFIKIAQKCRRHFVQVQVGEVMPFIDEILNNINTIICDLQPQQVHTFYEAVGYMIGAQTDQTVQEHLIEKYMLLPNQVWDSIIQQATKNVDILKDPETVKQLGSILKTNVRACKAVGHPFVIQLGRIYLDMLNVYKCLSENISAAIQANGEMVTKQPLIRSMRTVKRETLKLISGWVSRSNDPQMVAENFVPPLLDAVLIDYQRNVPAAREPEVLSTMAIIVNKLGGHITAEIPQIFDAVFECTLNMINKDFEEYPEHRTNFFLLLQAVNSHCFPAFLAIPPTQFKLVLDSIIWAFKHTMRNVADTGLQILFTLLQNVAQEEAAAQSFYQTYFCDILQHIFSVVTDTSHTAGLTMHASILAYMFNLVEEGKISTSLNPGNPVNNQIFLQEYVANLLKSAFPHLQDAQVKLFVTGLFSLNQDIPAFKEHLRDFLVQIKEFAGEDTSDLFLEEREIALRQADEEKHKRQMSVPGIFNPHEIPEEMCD
UniProt P03372: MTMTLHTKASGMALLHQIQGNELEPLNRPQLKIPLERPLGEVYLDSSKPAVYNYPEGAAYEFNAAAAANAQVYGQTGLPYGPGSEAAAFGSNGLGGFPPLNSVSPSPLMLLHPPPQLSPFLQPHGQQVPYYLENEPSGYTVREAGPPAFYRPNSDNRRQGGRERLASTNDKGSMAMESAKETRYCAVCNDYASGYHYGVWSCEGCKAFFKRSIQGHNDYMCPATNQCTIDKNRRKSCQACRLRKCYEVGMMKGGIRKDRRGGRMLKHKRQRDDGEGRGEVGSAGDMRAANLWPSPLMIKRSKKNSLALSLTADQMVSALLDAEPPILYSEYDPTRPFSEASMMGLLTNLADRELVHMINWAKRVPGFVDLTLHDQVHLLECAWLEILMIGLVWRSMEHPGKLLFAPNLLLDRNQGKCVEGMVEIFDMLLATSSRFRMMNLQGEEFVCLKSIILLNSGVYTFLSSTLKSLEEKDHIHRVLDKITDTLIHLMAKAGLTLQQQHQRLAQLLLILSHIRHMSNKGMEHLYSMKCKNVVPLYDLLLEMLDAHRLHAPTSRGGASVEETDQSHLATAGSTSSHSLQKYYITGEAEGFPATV
AF-1 domain (amino acids 1–180) of estrogen receptor α: residues 1-180 of P03372

For assay [2], the target named is estrogen receptor alpha (ERα), endogenous (human (endogenous in MCF-7, T47D, ZR-75-1)) (UniProt P03372). The assay is described as above.
Assay [3] has the same target. Briefly: proximity ligation; Duolink PLA on fixed MCF-7, T47-D and ZR-75-1 cells stimulated with E2 for 1 h; mouse anti-ERα (D12) and rabbit anti-ISG12 antibodies; endogenous proteins.
The target in assay [4] is AF-1 domain (amino acids 1–180) of estrogen receptor α (UniProt P03372). The experiment in a line: two-hybrid; Matchmaker two-hybrid screen in Y190 yeast; bait ERα AF-1 (1-180) in pAS2.1, human mammary gland cDNA library in pACT2; SD/-Leu -Trp -His with 25 mM 3-AT, 30°C, then β-galactosidase activity.

Results are given in words; binding and its absence hold for the method and conditions named. For some of these results: In cells and extracts the contact can be indirect. Some results given as binding are weak or reduced against the parent protein; the word gives no strength.

For the molecule “estrogen receptor alpha (ERα), endogenous (from UniProt P03372 1-595)”, the binding result in assay [1] is listed as “binds”. On to “nuclear exportin protein chromosomal maintenance 1 (CRM1/XPO1), endogenous (from UniProt O14980 1-1071)”, for which the binding entry in assay [2] is “binds”.

B1: interferon alpha inducible protein 27 (IFI27/ISG12), endogenous (protein, UniProt P40305-2 34-122)
chain: ATVVIGGVVAMAAVPMVLSAMGFTAAGIASSSIAAKMMSAAAIANGGGVASGSLVATLQSLGATGLSGLTKFILGSIGSAIAAVIARFY
On to B1, for which the binding entry in assay [3] is listed as “binds”.

B2: interferon alpha inducible protein 27 (IFI27/ISG12), clone from a human mammary gland cDNA library (protein, UniProt P40305-2 1-122)
chain: MEASALTSSAVTSVAKVVRVASGSAVVLPLARIATVVIGGVVAMAAVPMVLSAMGFTAAGIASSSIAAKMMSAAAIANGGGVASGSLVATLQSLGATGLSGLTKFILGSIGSAIAAVIARFY
With B2, in assay [4], the binding entry is on record as “binds”.

The values are drawn from PMC7575815.
